Measured values reported in US20220372138A1.
No constants are given. Whether binding was seen depends on the method and setting. Some results given as binding are weak or reduced against the parent protein; the word gives no strength. Each block holds one binder with its values, some of them ahead of it.

Protein sequences, listed by entry. Tags and fused reporters are not part of them. Lines headed by an entry give the natural chain unless they say otherwise; changes in a name come on top.
UniProt Q5DX21: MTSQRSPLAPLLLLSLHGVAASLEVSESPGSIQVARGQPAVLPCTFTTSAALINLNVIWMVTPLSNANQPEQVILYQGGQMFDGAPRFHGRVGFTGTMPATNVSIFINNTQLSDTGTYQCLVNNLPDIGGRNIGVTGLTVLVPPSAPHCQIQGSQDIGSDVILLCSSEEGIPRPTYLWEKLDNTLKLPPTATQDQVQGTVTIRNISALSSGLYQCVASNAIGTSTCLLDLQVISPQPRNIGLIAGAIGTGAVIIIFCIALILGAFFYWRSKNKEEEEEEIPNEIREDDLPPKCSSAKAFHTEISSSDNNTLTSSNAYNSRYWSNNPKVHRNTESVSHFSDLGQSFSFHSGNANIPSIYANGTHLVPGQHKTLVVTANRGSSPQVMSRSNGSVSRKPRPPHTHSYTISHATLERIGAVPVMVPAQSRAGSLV

Legend:
[1] = molecular target: human IGSF11 (VSIG3) expressed on cells (human) (UniProt Q5DX21); assay: FACS 35-50% cells
Streptavidin = Streptavidin (UniProt P22629); assay: scFv ELISA
[2] = molecular target: human IGSF11 (VSIG3) expressed on cells (human) (UniProt Q5DX21); assay: FACS MFI 100-150
[3] = molecular target: human IGSF11 (VSIG3) expressed on cells (human) (UniProt Q5DX21); assay: flow cytometry on MDA-MB-231-luc/IGSF11 cells, anti-human IgG Fc-AF647
[4] = molecular target: human IGSF11 (VSIG3) expressed on cells (human) (UniProt Q5DX21); assay: FACS staining of COLO-741 cells (endogenous IGSF11)
[5] = molecular target: human IGSF11 (VSIG3) expressed on cells (human) (UniProt Q5DX21); assay: FACS COLO-741
[6] = molecular target: human IGSF11 (VSIG3) expressed on cells (human) (UniProt Q5DX21); assay: FACS, MDA-MB-231-luc transduced with IGSF11
[7] = molecular target: human IGSF11 (VSIG3) expressed on cells (human) (UniProt Q5DX21); assay: flow cytometry on MDA-MB-231-luc cells transduced with IGSF11 (A) or mock transduced (B), A-006 then anti-human IgG-AF647
[8] = molecular target: human IGSF11 (VSIG3) expressed on cells (human) (UniProt Q5DX21); assay: FACS, MDA-MB-231-luc/IGSF11, soluble IGSF11-His as competitor

- binding [1]: binds
- binding (Streptavidin): no binding (tested: <0.025 or <0.05 RFU)
- binding [2]: binds
B1: A-022 (scFv format) (scFv, V domains shown)
VH: EVQLLESGPGLVKPSQTLSLTCTVSGGSISSGGYYWSWIRQHPGKGLEWIGYIYYSGSTYYNPSLKSRVTISVDTSKNQFSLKLSSVTAADTAVYYCARASRSTDYYFDYWGQGTLVTVSS
VL: QPGLTQPPSMSYGLGQTATLTCTGNRNNIGDQGAAWLQQHQGHPPKLLSYRNNNGPSGISERLSASRSGNTASLTISGLQPEDEADYYCSAWDSSLRAWVFGGGTKLTVL

- binding [3]: binds
- binding [4]: binds
- binding [5]: binds
- binding [6]: binds
- binding [7]: binds
- binding [8]: binds
B2: A-006 (IgG1 format) (antibody, V domains shown)
VH: EVQLVESGGGLIQPGGSLRLSCAASGFTVSSNYMSWVRQAPGKGLEWVSVIYSGGSTYYADSVKGRFTISRDNSKNTLYLQMNSLRAEDTAVYYCARGNPYYYGDLQVNFDYWGQGTLVTVSS
VL: QAVVTQEPSLTVSPGGTVTLTCASSTGAVTSGYYPNWFQQKPGQAPRPLIYSTSNKHSWTPARFSGSLLGGKAALTLSGVQPDDEAEYYCLLYYGGDWVFGGGTKLTVL
